From patent US20210299134A1, “TREATMENT OF B CELL MALIGNANCIES” (MEI Pharma, Inc., priority 2018, published 2021)
For part of these data: At least one read-out could not be matched to a standard name with certainty. For part of these data: For at least one compound, name, drawing or mass did not settle the structure.

How the values were obtained:
[1] = system: patients with relapsed B-cell malignancies (FL, CLL/SLL); assay: Phase 1b study of Compound A35 as single agent: disease response rate; type: in vivo, human
Experimental: An intermittent dosing schedule on days 1-7 of a 28-day cycle was then evaluated after 2 cycles of daily dosing, or ≥3 cycles of daily dosing to reduce the risk of immune-related adverse events. For this analysis the intermittent schedule (IS) group is defined as patients who received Compound A35 alone or with rituximab daily for 2 cycles then switched to an intermittent schedule of 1 week per cycle, and the continuous schedule (CS) group is defined as patients who never switched to intermittent dosing or switched to intermittent dosing in cycle 4 or later cycles. Toxicity on CS is managed by a switch to IS.
In an ongoing Phase 1b study, Compound A35 was administered as a single agent in patients with relapsed B-cell malignancies. Patients have been enrolled in 3 cohorts: • Group A: 31 patients enrolled in a dose escalation phase of the study, with Compound A35 administered as a single agent at a dose of 60, 120, and 180 mg/day. In Group A, all patients began receiving Compound A35 on a CS. […]
A very high rate of disease response was reported in 30 patients evaluable for response in the dose escalation cohort, both in FL and CLL/SLL, with no difference in response rate across the 3 doses evaluated (Table 2).

[2] = once weekly dosing; cited from earlier work

Row | Structure (SMILES) | treatment efficacy with IS administration ([1]; IS versus CS) | response rate (aggregated Groups A and B) ([1]; relapsed FL and CLL/SLL, administered on IS or CS) | plasma levels >IC90, days of 7 [2]
1 | CN1CCC(c2ccccc2CC(C)(C)Nc2nc(N3CCOCC3)nc(-n3c(C(F)F)nc4ccccc43)n2)CC1 [Compound A35] | without erosion in treatment efficacy | high response rate | –
2 | CCOc1c([C@H](C)n2nc(C)c3c(N)ncnc32)cc(Cl)c(F)c1[C@@H]1CNC(=O)C1 [parsaclisib] | – | – | 1.5/7 days
